No constants are given. Whether binding was seen depends on the method and setting. Some results given as binding are weak or reduced against the parent protein; the word gives no strength.
Key:
[1] = molecular target: T1, VEGF-B (UniProt P49765); experiment: ELISA, cytokine coated (50 nM), 100 nM TNC III1-5, HRP-anti-HIS
T1 sequence (looked up): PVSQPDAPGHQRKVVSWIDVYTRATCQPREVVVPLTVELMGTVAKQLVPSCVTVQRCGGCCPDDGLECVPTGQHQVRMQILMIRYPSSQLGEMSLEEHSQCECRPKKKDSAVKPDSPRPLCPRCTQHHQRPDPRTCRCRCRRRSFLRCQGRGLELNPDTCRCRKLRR

Sequences of proteins named here, by UniProt entry; tags and fusion partners are left off. Residues count along the entry.
UniProt P01127, residues 82-190: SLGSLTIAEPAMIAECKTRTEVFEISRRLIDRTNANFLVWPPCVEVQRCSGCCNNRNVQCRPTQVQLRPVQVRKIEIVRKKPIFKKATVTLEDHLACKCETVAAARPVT
UniProt P24821, residues 895-1074: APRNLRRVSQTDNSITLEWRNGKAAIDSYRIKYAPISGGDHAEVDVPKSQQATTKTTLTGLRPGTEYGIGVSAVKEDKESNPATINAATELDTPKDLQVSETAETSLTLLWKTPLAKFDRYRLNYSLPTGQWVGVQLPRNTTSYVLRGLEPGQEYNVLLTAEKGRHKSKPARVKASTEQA

[2] = molecular target: T2, PlGF-1 (UniProt P49763); experiment: ELISA: cytokine coated (50 nM), 100 nM TNC III1-5 in solution, HRP-anti-His, A450
T2 sequence (looked up): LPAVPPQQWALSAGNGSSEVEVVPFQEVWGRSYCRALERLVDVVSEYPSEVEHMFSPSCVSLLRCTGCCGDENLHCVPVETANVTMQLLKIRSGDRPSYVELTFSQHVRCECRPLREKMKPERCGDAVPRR

[3] = molecular target: T1, VEGF-B; experiment: ELISA: cytokine coated (50 nM), 100 nM TNC III1-5 in solution, HRP-anti-His, A450; black bars without, white bars with 4 µM heparin
[4] = molecular target: PDGF-BB (UniProt P01127); experiment: ELISA: GST-fused TNC domains, GST and BSA coated, 2 nM PDGF-BB in solution, anti-PDGF-BB antibody and HRP secondary, A450

Row | binding [1] | binding [2] | binding [3] | binding [4] | Substance
1 | binds | no binding (tested: 100 nM) | binds |  | TNC III1-5 (from UniProt P24821 622-1074)
2 |  |  |  | binds | TNC III4-5 (from UniProt P24821 895-1074)

Source: patent publication US20140011978A1
